Laboratory results as given in article PMC5201249, “Agrobacterium tumefaciens estC, Encoding an Enzyme Containing Esterase Activity, Is Regulated by EstR, a Regulator in the MarR Family” (PLoS ONE, 2016).
Where a protein sequence is shown, tags need not be part of it.

Experiments:
EstR [1] = target: T1, EstR (UniProt A9CLK2); assay: EMSA; conditions: complex seen at 25 nM EstR, maximal at 100 nM, 1 mM DTT, EMSA: 20 mM Tris-HCl pH 7.0, 50 mM KCl, 50 ug/ml BSA, 1 mM EDTA, 5% glycerol, 25 C 15 min, 3 fmol probe in 25 ul, recombinant protein, residues 1-155, label: 5'-32P on BT1574 strand, probe letters rebuilt from the primers and the genome
T1 sequence (looked up): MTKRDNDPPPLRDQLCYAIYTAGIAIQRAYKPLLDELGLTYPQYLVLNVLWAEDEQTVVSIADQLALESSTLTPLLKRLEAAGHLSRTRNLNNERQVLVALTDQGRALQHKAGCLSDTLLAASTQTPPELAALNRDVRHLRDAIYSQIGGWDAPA

EstR [2] = target: T1, EstR; assay: competition with a labelled probe; conditions: cold 314-bp promoter fragment competes with labeled fragment; EMSA: 20 mM Tris-HCl pH 7.0, 50 mM KCl, 50 ug/ml BSA, 1 mM EDTA, 5% glycerol, 1 mM DTT, 25 C 15 min, 3 fmol probe in 25 ul; recombinant protein; residues 1-155; label: 5'-32P on BT1574 strand; probe letters rebuilt from the primers and the genome
EstR [3] = target: T1, EstR; assay: DNase I footprinting; conditions: footprinting: same with 0.1 mM DTT, 5 ug/ml calf thymus DNA, 500 ng poly(dI-dC), room temperature, recombinant protein, residues 1-155, label: 5'-32P on BT1574 strand, probe letters rebuilt from the primers and the genome

Measured: binding result

CTGGATAGCGATGCCTGCGGTATAAATAGCATAGCAGAGCTGGTCGCGCAGGGGCGGGGGATCATTATCGCGTTTGGTCATTCTGAACTCCTGTAGACACCAATATAACCTAAATTATCACGAAAACCAATATCGCGATAAGAATCATATTGACGCGTGTCCGAAGATATGAAAACCTATAGTTATCGCGATAACAGTTATCGCATTAAGAGAGAGGAGAGCATCATGTCACGCAAGTCCATCACTACCATTTCCGCAATCGCAACTGCAGCCTCGCTGTCGGTTGCCCTGCCGGCAGCGAATGCAGCCGACAC (double strand) [estR-estC promoter fragment, 314 bp]
binds: EstR [1] | EstR [2] | EstR [3]; site OI, +16 to -18 of estC promoter, protection at 50 nM EstR | EstR [3]; site OII, -46 to -82 of estC promoter, protection at 75 nM EstR
